Test results published in PubChem BioAssay AID2685 (National Center for Advancing Translational Sciences (NCATS), 2010).
Screen size: about 320,000 compounds; about 2,100 (0.66%) were called active. The inconclusive results got no clear call from the source; some entries with a clear call stand among them for comparison. The call rests on the fitted dose curve; in most records, active means well fitted inhibition curve with a large enough effect in the signal ratio, with a control signal flat (not every such curve was filed as active); inconclusive means small, poorly fitted or top-dose-only effect, or effect the other way, or a change in a side signal; inactive means flat fitted curve, though single readings scatter; the % refers to the signal ratio. Where the call is inconclusive, the potency comes from a doubtful curve fit.

Assay: qHTS Assay for Lipid Storage Modulators in Drosophila S3 Cells
Settings: BODIPY lipid droplet fluorescence, 18-24 h, cells fed with added oleic acid; lipid storage change, negative = inhibition: at 46.1 µM (top of the series) unless noted
Summary of the method: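 Drosophila S3 cells loaded with oleic acid (400 uM, as added) and compounds at several concentrations; lipid droplets imaged by 488-nm laser-scanning cytometry, 500–530 nm intensity and object ratio to cell channel. Percent activity normalized to 20 uM Triacsin C.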
On the % scale 0 is the no-effect control and ±100 the full control effect; potency means the concentration at half of the fitted maximal effect.

Row | Structure (SMILES) | lipid storage change, negative = inhibition | Potency
1 | CN1C(=O)N(C)C(=O)C(CCc2ccncc2)(CCc2ccncc2)C1=O | inconclusive: -3.01% | 
2 | Cc1nc2cc(C(F)(F)F)ccc2n1C1CCN(Cc2nnnn2CCc2ccccc2)CC1 |  | inconclusive: 29.1 µM [cytotoxic, single point]
3 | O=C1/C(=C/c2cc3c(cc2Cl)OCO3)N2CCC1CC2 |  | inconclusive: 0.0731 µM [activator, full curve, poor fit]
4 | Cc1cc(C)n2nc(SC(C)C(=O)N3CCC4(CC3)OCCO4)nc2n1 (centres undefined) | inconclusive: 4.07% | 
5 | O=c1[nH]c(O)c(N=Nc2cc(C(F)(F)F)ccc2Cl)c(=O)[nH]1 | inconclusive: 27.2% | 
6 | O=C1NC(=O)N(Cc2ccco2)C(=O)/C1=C\c1cccn1CCOc1ccc(Cl)cc1 |  | inconclusive: 14.6 µM [falling, single point]
7 | CCOC(=O)c1ccc(-[n+]2c(-c3ccccc3)cc(-c3ccccc3)cc2-c2ccccc2)cc1 |  | inconclusive: 29.1 µM [falling, single point]
8 | CC[N+](CC)(CC)CCCCCCCCCC[N+](CC)(CC)CC |  | inconclusive: 4.11 µM [falling, single point]
9 | COc1ccccc1-n1c(O)c(/C=N/N2CCCCC2)c(=O)n(-c2ccccc2OC)c1=S | inconclusive: -16.4% | 
10 | CCOP(=O)(Cc1ccc(C#N)o1)OCC | inconclusive: -24.3% | 
11 | COc1ccc(C2C(C(=O)N3CCC4(CC3)OCCO4)c3cc(OC)c(OC)cc3C(=O)N2C)cc1 (centres undefined) | inconclusive: 16.7% | 
12 | O=C1C=Cc2ccccc2C1=O | inconclusive: 0.842% | 
13 | CNCC(O)c1cccc(OC(=O)c2ccccc2C)c1 (centres undefined) | inconclusive: 4.89% | 
14 | COC(=O)C1=C(c2ccc(F)cc2OCc2ccccc2)C[C@@H]2CC[C@H]1N2C(=O)NCc1cccc(C(F)(F)F)c1 | inconclusive: 10.1% | 
15 | COC(=O)C1=C(c2ccc(-c3ccccc3)c(F)c2)C[C@@H]2CC[C@H]1N2C(=O)NCC1CC1 | inactive | 
16 | Fc1ccc2c(c1)nnn2C1CCN(Cc2nnnn2CCc2ccccc2)CC1 | inconclusive: 22.3% | 
17 | CC(C)c1ccc(-n2c(O)c(/C=N/NC(=O)c3ccncc3)c(=O)[nH]c2=O)cc1 | inconclusive: -18.9% | 
18 | Cc1ccc(-c2cc(-c3ccccc3)cc(-c3ccccc3)[n+]2-c2ccc(C(=O)O)cc2)cc1 | inconclusive: 15.3% | 
19 | COc1cc(OC)c(OC)cc1CN1CCN(C(=O)COc2ccc3ccccc3c2)CC1 |  | inconclusive: 29.1 µM [activator, single point]
20 | O=[N+]([O-])c1cc(S(=O)(=O)c2ccc(O)c([N+](=O)[O-])c2)ccc1O |  | inconclusive: 0.206 µM [falling, full curve, poor fit]
21 | CCOP(=O)(OCC)C(NC(=O)c1ccccc1)=C(Cl)Cl | inactive | 
22 | O=C(O)CC1OCC=C2CN3CCC45c6ccccc6NC4C1C2CC35 (centres undefined) | inconclusive: 17.4% | 
23 | CC1(C)CC(n2[nH]c(=O)c3c2NC(=O)CSC3c2ccc(F)cc2)CCO1 (centres undefined) | inactive | 
24 | CC#CP(=O)(OC)C(O)(CF)c1ccccc1 (centres undefined) | inconclusive: 8.59% | 
25 | CCCCCCNc1nc(OC)nc(N2CC3CC(C2)c2cccc(=O)n2C3)n1 (centres undefined) | inconclusive: -20.8% | 

4 of these compounds in a different format:
Row,Structure (SMILES),"lipid storage change, negative = inhibition",Potency
4,Cc1cc(C)n2nc(SC(C)C(=O)N3CCC4(CC3)OCCO4)nc2n1 (centres undefined),inconclusive: 4.07%,
5,O=c1[nH]c(O)c(N=Nc2cc(C(F)(F)F)ccc2Cl)c(=O)[nH]1,inconclusive: 27.2%,
6,O=C1NC(=O)N(Cc2ccco2)C(=O)/C1=C\c1cccn1CCOc1ccc(Cl)cc1,,"inconclusive: 14.6 µM [falling, single point]"
7,CCOC(=O)c1ccc(-[n+]2c(-c3ccccc3)cc(-c3ccccc3)cc2-c2ccccc2)cc1,,"inconclusive: 29.1 µM [falling, single point]"

The list goes on.

Row | Structure (SMILES) | lipid storage change, negative = inhibition | Potency
26 | COC(=O)Cn1cc(C=C2C(=O)N(C)C(=O)N(C)C2=O)c2ccccc21 | inconclusive: 16.6% | 
27 | COc1cccc(NC(=O)[C@@H](NC(=O)N2C[C@H]3C[C@@H](C2)c2cccc(=O)n2C3)C(C)C)c1 | inconclusive: -17.2% | 
28 | CC/C=C/CC(=O)N[C@@H](c1ccccc1)[C@@H](O)C(=O)O[C@H]1C[C@@]2(O)[C@@H](OC(=O)c3ccccc3)C3[C@](C)(C(=O)[C@H](OC(C)=O)C(=C1C)C2(C)C)[C@@H](O)C[C@H]1OC[C@@]31OC(C)=O (some centres undefined) | inconclusive: -18.1% | 
29 | CCC(=NCCCN(CC)CC)c1c(O)n(C2CCCCC2)c(=O)[nH]c1=O | inconclusive: 99.1% | 
30 | Nc1ccccc1C(=O)OCCOc1ccccc1 |  | inconclusive: 29.1 µM [activator, single point]
31 | COC(=O)C1=C(c2ccc(Cl)c(C(F)(F)F)c2)C[C@@H]2CC[C@H]1N2C(=O)N1CCCC1 |  | inconclusive: 29.1 µM [falling, single point]
32 | Clc1ccc(C(Cn2ccnc2)OCc2csc3c(Cl)cccc23)c(Cl)c1 (centres undefined) | inconclusive: -90.6% | 
33 | Fc1ccc(CNCCc2ccc3c(c2)OCO3)cc1 | inconclusive: 18.7% | 
34 | CCP(=S)(CC)c1ccc(N(C)C)cc1 | inconclusive: 6.83% | 
35 | Cc1cccc(C#N)c1 |  | inconclusive: 0.116 µM [activator, single point]
36 | CC1CCCCN1C(=O)Cn1cc(C=C2C(=O)N(C)C(=O)N(C)C2=O)c2ccccc21 (centres undefined) |  | inconclusive: 32.6 µM [falling, single point]
37 | O=[N+]([O-])c1ccc(NCc2ccc(Cl)cc2)c2ccncc12 | inconclusive: -71.5% | 
38 | COc1ccc(-n2cnc3cc(C(=O)N4CCC5(CC4)OCCO5)ccc32)cc1 |  | inconclusive: 6.51 µM [cytotoxic, single point]
39 | O=c1oc2ccccc2n1Cn1c(=O)oc2ccccc21 |  | inconclusive: 1.16 µM [activator, full curve]
40 | COP(=O)(OC)C(NC(=O)C(C)(C)C)=C(Cl)Cl |  | inconclusive: 0.731 µM [falling, single point]
41 | O=C(C1CCC(=O)N1Cc1ccccc1Cl)N1CCC2(CC1)OCCO2 (centres undefined) |  | inconclusive: 29.1 µM [falling, single point]
42 | COc1ccc2c(C)c(CC(=O)N3C[C@H]4C[C@@H](C3)c3cccc(=O)n3C4)c(=O)oc2c1C |  | inconclusive: 0.731 µM [falling, single point]
43 | COc1cccc(NC(=O)N2CCC3(CC2)OCCO3)c1 | inconclusive: -9.41% | 
44 | CCCN1CC[C@@H]2c3cc(O)ccc3CC[C@@H]21 | inconclusive: -12.1% | 
45 | Cc1cc(/C=C2\C(=O)NC(=O)N(c3ccccc3F)C2=O)c(C)n1-c1cc(C(=O)O)cc(C(=O)O)c1 | inconclusive: -67.1% | 
46 | CN1CCN(C(=O)COc2ccc(C(C)(C)C)cc2Br)CC1 |  | inconclusive: 0.651 µM [falling, partial curve]
47 | Cc1cc(Cl)ccc1OC(C)C(=O)O (centres undefined) | inconclusive: -12.4% | 
48 | Cc1cc(N2CCN(C)CC2)nc2ccccc12 | inactive | 
49 | CC(C)CCNC(=O)CN1C(=O)CN=C(c2ccccc2)c2ccccc21 | inconclusive: -32% | 
50 | CCCCOC(=O)C1=C(N)OC2=C(C(=O)CCC2)[C@]12C(=O)N(C)c1ccccc12 |  | active: 5.17 µM

Row | Structure (SMILES) | lipid storage change, negative = inhibition | Potency
51 | CC(NC1CCCCC1)C(O)C12CC3CC(CC(C3)C1)C2 (centres undefined) |  | inconclusive: 0.82 µM [falling, single point]
52 | C[C@H](NC(=O)N1C[C@H]2C[C@@H](C1)c1cccc(=O)n1C2)C(=O)Nc1ccccc1F | inconclusive: 27.5% | 
53 | COc1ccccc1-n1c(O)c(/C=N/NC(=S)Nc2ccccc2)c(=O)[nH]c1=S | inconclusive: -26.9% | 
54 | N#Cc1ccc(NC(=O)CN2CCCCCC2)cc1Cl | inconclusive: 19.7% | 
55 | O=C(O)C(O)(c1ccccc1)C1CCCCC1 (centres undefined) | inactive | 
56 | COC(=O)C1=C(c2cccc(C#N)c2)C[C@@H]2CC[C@H]1N2C(=O)NCCNC(C)=O | inconclusive: 21.2% | 
57 | Cc1cc(/C=C2\C(=O)NC(=O)N(Cc3ccccc3)C2=O)c(C)n1C1CC1 | inconclusive: -4.73% | 
58 | CC(C)c1ccc(N2C(=O)NC(=O)/C(=C/C=C/c3ccco3)C2=O)cc1 |  | inconclusive: 11.6 µM [cytotoxic, partial curve]
59 | COc1ccc(C2SCC(=O)Nc3c2c(C)nn3-c2ccccc2)cc1OC (centres undefined) | inconclusive: -16.8% | 
60 | CCCCOc1ccc(CC2C(=O)N(C)C(=O)N(C)C2=O)cc1 | inactive | 
61 | CC(=O)N(C1=NCCCS1)c1ccccc1F | inconclusive: 0.497% | 
62 | CCCCn1c(O)c(C=NCCN2CCCCC2)c(=O)[nH]c1=O | inconclusive: 35.2% | 
63 | O=C1CCN(C(=O)CNC(=O)Cc2ccccc2)CC1 | inconclusive: 9.37% | 
64 | COc1ccc([N+](=O)[O-])cc1N=Cc1c(O)n(CCc2ccccc2)c(=O)n(C(C)C)c1=O | inconclusive: 13.7% | 
65 | CCOC(=O)C1=C(N)OC2=C(C(=O)CCC2)[C@]12C(=O)N(CC(N)=O)c1ccccc12 | inactive | 
66 | O=P(Oc1ccccc1)(Oc1ccccc1)N1CCN(c2ccc(F)cc2)CC1 |  | inconclusive: 6.51 µM [falling, single point]
67 | CC12CN3CC(C)(CN(C1)C3c1cccnc1)C2=O (centres undefined) | inconclusive: -10.3% | 
68 | COC(=O)C1=C(N)Oc2c(c(=O)oc3ccccc23)[C@]12C(=O)N(C)c1ccccc12 | inconclusive: 19.4% | 
69 | O=C(CN1C(=O)CN=C(c2ccccc2Cl)c2cc(Cl)ccc21)NCc1ccco1 | inconclusive: -1.46% | 
70 | O=C(NCc1ccccc1)c1cccn(Cc2cccc(Cl)c2)c1=O |  | inconclusive: 0.731 µM [falling, partial curve, poor fit]
71 | COc1ccc(N2C(=O)/C(=C/c3ccc(OC)c(OC)c3)C(=O)NC2=S)cc1 | inconclusive: 144% | 
72 | COC(=O)CC1=C(C(=O)OC)C2(C(=O)Nc3c(C)cccc32)C(C#N)=C(N)O1 (centres undefined) |  | inconclusive: 29.1 µM [activator, single point]
73 | CC(C)NC(C)C(=O)C12CC3CC(CC(C3)C1)C2 (centres undefined) |  | inconclusive: 6.51 µM [falling, single point]
74 | Cc1cc(C)c(NC(=O)CCCn2c(=O)oc3ccccc32)c(C)c1 |  | inconclusive: 29.1 µM [activator, single point]
